Experimental data reported in PubChem BioAssay AID504834 (National Center for Advancing Translational Sciences (NCATS), 2011).
About 22,000 (6.9%) of roughly 320,000 compounds were called active. The inconclusive results got no clear call from the source; some entries with a clear call stand among them for comparison. Calls follow the shape of the dose curve; as a rule, active = well fitted inhibition curve with a large enough effect; inconclusive = small, poorly fitted or top-dose-only effect, or another doubt; inactive = no such curve, though single readings can be large or run the other way. A potency beside an inconclusive call is a rough fit, not a confirmed value.

Test: Primary qHTS for delayed death inhibitors of the malarial parasite plastid, 96 hour incubation
Details: P. falciparum luciferase reporter growth; series mostly up to 28.7 µM; activity change, negative = inhibition: at the top concentration
In short: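 Infected RBCs, 2% Hct / 0.05% parasitemia final; luciferase-reporter P. falciparum; cpd 96 h, 37 C, 5% CO2; luciferase detection reagent; luminescence.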
% is scaled to controls: 0 for no effect and ±100 for the full control effect; potency is read from the fitted curve at half-maximal effect.

Row | SMILES | Potency | activity change, negative = inhibition
1 | COCCSc1nc2sc3c(c2c(=O)n1-c1ccccc1)CCN(C)C3 | inconclusive: 18.5 µM [inhibitor, single point] | –
2 | COc1cc(CCC(=O)NC2(C)CCS(=O)(=O)C2)cc(OC)c1OC (stereo not drawn) | inconclusive: 5.86 µM [inhibitor, partial curve] | –
3 | Cc1cc(C(=O)CSc2nnc(N)s2)c(C)n1CCc1ccc(Cl)cc1 | inconclusive: 7.38 µM [inhibitor, partial curve] | –
4 | CC12CC(NC(=O)N1c1cccc(C(=O)NCc3ccccc3)c1)c1ccccc1O2 (stereo not drawn) | – | inactive: -4.29%
5 | COc1ccc(C(=O)CN2C(=O)NC(C)(c3ccccc3)C2=O)cc1OC (stereo not drawn) | – | inactive: 0%
6 | Cc1ccc(-c2cc(C(=O)OCC(=O)Nc3ncc(C(F)(F)F)cc3Cl)c3ccccc3n2)cc1 | inconclusive: 14.7 µM [inhibitor, single point] | –
7 | COc1ccccc1CN1CCC(CNS(=O)(=O)c2cc(-c3onc(C)c3C)ccc2OC)CC1 | inconclusive: 18.5 µM [inhibitor, single point] | –
8 | CC(C)NC(=O)c1cc2n(n1)C(C(F)(F)F)CC(c1ccco1)N2 (stereo not drawn) | – | inactive: 22.4%
9 | O=S(=O)(c1ccc(SCc2ccc(Cl)cc2)nc1)N1CCCC1 | inconclusive: 18.5 µM [inhibitor, single point] | –
10 | CCCS(=O)(=O)N1CCN(Cc2ccc3c(c2)c2ccccc2n3CC)CC1 | – | inactive: 34.8%
11 | CCc1cc(-c2n[nH]c(C)c2-c2nc3ccccc3n2C)c(O)cc1O | active: 13.1 µM | –
12 | O=c1[nH]c(/C=C/c2ccccc2Cl)nc2ccccc12 | inconclusive: 18.5 µM [inhibitor, single point] | –
13 | Nc1nc(N)nc(-c2cccc(Cl)c2)n1 | inconclusive: 13.1 µM [inhibitor, single point] | –
14 | COc1ccc(-c2ccc(F)cc2)cc1[C@H]1[C@H]2C=CC[C@@H](C)[C@@H]2C(=O)N1Cc1ccccc1 | inconclusive: 11.7 µM [inhibitor, single point] | –
15 | CCn1c(SCC(=O)c2ccc(Cl)cc2)nnc1-c1cccs1 | – | inactive: -12.3%
16 | Cc1ccccc1-c1nnc(CN2CCN(C(=O)c3ccco3)CC2)o1 | – | inactive: 11%
17 | COc1ccccc1N1CCN(CCCCNC(=O)c2ccc3ccccc3c2)CC1 | active: 4.15 µM | –
18 | CCCCCCCCCCCCC(=O)CCCCC(=O)O | inconclusive: 18.5 µM [inhibitor, single point] | –
19 | CC(=O)Oc1ccc(C2(c3ccc(OC(C)=O)cc3)C(=O)Nc3ccccc32)cc1 | inconclusive: 5.36 µM [inhibitor, partial curve] | –
20 | Cc1oc(-c2ccc(F)cc2)nc1CN(Cc1ccccn1)CC1CCCO1 (stereo not drawn) | inconclusive: 18.5 µM [inhibitor, single point] | –
21 | O=C(OC1CSc2nc3ccccc3n2C1)c1ccco1 (stereo not drawn) | inconclusive: 10.4 µM [inhibitor, single point] | –
22 | CCOc1ccc(NCc2cccn2-c2nnc(N3CCC(C(=O)NCCCN4CCCCC4CC)CC3)s2)cc1 (stereo not drawn) | inconclusive: 11.7 µM [inhibitor, single point] | –
23 | COc1cccc(-c2cc(C(=O)N3CCN(C(=O)c4ccco4)CC3)[nH]n2)c1 | inconclusive: 13.1 µM [inhibitor, single point] | –

Row | SMILES | Potency | activity change, negative = inhibition
24 | Cc1c(NC(=S)NC(=O)c2ccco2)cccc1-c1nc2ncccc2o1 | inconclusive: 11.7 µM [inhibitor, single point] | –
25 | CCOC(=O)c1cc2c(ccn2C)n1CC(=O)N1CCCC(C)C1 (stereo not drawn) | inconclusive: 0.37 µM [inhibitor, full curve, poor fit] | –
26 | COc1cc(/C=C2\SC(c3ccc(C)cc3)=NC2=O)cc(OC)c1O | inconclusive: 4.15 µM [inhibitor, full curve] | –
27 | COc1ccc(-c2n[nH]c(=S)n2Cc2ccccc2)cc1OC | – | inactive: 122%
28 | Cc1ccn(CCC(=O)N2CCCC(CCC(=O)NCc3ccc(F)c(F)c3)C2)n1 (stereo not drawn) | active: 11.7 µM | –
29 | CC1=C(C(=O)Nc2ccccn2)C(c2ccc(Br)cc2)NC(=S)N1 (stereo not drawn) | – | inactive: 50.3%
30 | Cc1c(C(=O)N2CCCc3ccccc32)oc2ccc(S(=O)(=O)N3CCOCC3)cc12 | – | inactive: -2.65%
31 | CNC(=O)c1c(NC(=O)CS(=O)(=O)c2ccc(F)cc2)sc(C)c1C | – | inactive: 2.53%
32 | O=C(COc1ccccc1)NC1CCCN(Cc2ccccc2F)C1 (stereo not drawn) | inconclusive: 18.5 µM [inhibitor, single point] | –
33 | COc1ccccc1-n1c(C)cc(/C=C2/C(=N)N3C(=NC2=O)SN=C3S(C)(=O)=O)c1C | inconclusive: 13.1 µM [inhibitor, partial curve, poor fit] | –
34 | COC(=O)C1=C(c2ccc(F)cc2OCc2ccccc2)C[C@@H]2CC[C@H]1N2C(=O)NC1CC1 | inconclusive: 18.5 µM [inhibitor, single point] | –
35 | COc1cccc(C(CC(=O)O)NS(=O)(=O)c2ccc3c(c2)N(C(C)=O)CC(C)O3)c1 (stereo not drawn) | inconclusive: 16.5 µM [inhibitor, partial curve, poor fit] | –
36 | C=C(C)COc1ccc(-c2nc(N)ncc2-c2ccc(Cl)cc2)c(O)c1 | inconclusive: 1.31 µM [inhibitor, full curve] | –
37 | CC(C)(C)NC(=O)C(c1c[nH]c2ccccc12)N(C(=O)Cn1nnc(-c2ccc(F)cc2)n1)c1cccc(O)c1 (stereo not drawn) | inconclusive: 14.7 µM [inhibitor, single point] | –
38 | COc1ccc(NC(=O)N2CCCCCC2)cc1OC | inconclusive: 10.4 µM [inhibitor, partial curve, poor fit] | –
39 | Cc1nc([N+](=O)[O-])cn1-c1nc2ccccn2c1[N+](=O)[O-] | – | inactive: 3.19%
40 | Cc1cccc(Nc2ncnc(N)n2)c1 | – | inactive: 19%
41 | Nc1cc(-c2ccc(Cl)cc2)nn1S(=O)(=O)c1ccc(Cl)cc1 | active: 3.29 µM | –
42 | COc1cc(C(=O)Oc2cccc(/C=N/NC(=O)c3cccnc3)c2)cc(OC)c1OC | inconclusive: 1.47 µM [inhibitor, full curve] | –
43 | Cc1ccc(Cn2c(N3CCN(C)CC3)nc3c2c(=O)[nH]c(=O)n3C)cc1 | – | inactive: 12.4%
44 | Clc1ccc(-c2nnc3c4ccccc4nc(N4CCOCC4)n23)cc1Cl | inconclusive: 0.208 µM [inhibitor, full curve, poor fit] | –
45 | CC(C)NCC(O)c1ccc(N)c(C#N)c1 (stereo not drawn) | active: 12 µM | –
46 | CCCCc1ccc(NC(=O)Nc2c(C)n(C)n(-c3ccccc3)c2=O)cc1 | inconclusive: 14.7 µM [inhibitor, single point] | –

Row | SMILES | Potency | activity change, negative = inhibition
47 | O=C(c1cc([N+](=O)[O-])ccc1Cl)N1CCN(c2ccccn2)CC1 | inconclusive: 10.4 µM [inhibitor, single point] | –
48 | COc1ccc(CCNc2nc(-c3ccco3)cc(C(F)(F)F)n2)cc1OC | inconclusive: 4.15 µM [inhibitor, single point] | –
49 | CCC(CO)(C(=O)OC1C[N+]2(C)CCC1CC2)c1ccccc1 (stereo not drawn) | inconclusive: 1.85 µM [inhibitor, single point] | –
50 | CN1/C(=C/C2CC(=O)N(c3cccc4ccccc34)C2=O)C(C)(C)c2ccccc21 (stereo not drawn) | inconclusive: 11.7 µM [inhibitor, partial curve, poor fit] | –
51 | CC1CCN(c2nc(-c3cccnc3)nc3scc(-c4ccccc4)c23)CC1 | inconclusive: 3.7 µM [inhibitor, partial curve, poor fit] | –
52 | CN(C)CCn1cnc2c(c1=N)C(c1ccccc1)c1ccc3ccccc3c1O2 (stereo not drawn) | active: 5.22 µM | –
53 | Cc1cccc(CNc2ncnc3ccc(-c4cccnc4)cc23)c1 | active: 6.57 µM | –
54 | CCCCNC(=O)c1cc(-c2ccc(OC)c(OC)c2)on1 | active: 3.29 µM | –
55 | COc1cccc(NCc2cc(=O)oc3cc(C)c(C(C)C)cc23)c1 | inconclusive: 4.15 µM [inhibitor, partial curve, poor fit] | –
56 | Cc1ccc(CN(C(=O)c2sc3ccccc3c2Cl)C2CCS(=O)(=O)C2)cc1 (stereo not drawn) | inconclusive: 18.5 µM [inhibitor, single point] | –
57 | CCC(C)N(C(=O)COC(=O)CNC(=O)c1sc2ccccc2c1Cl)C1CCS(=O)(=O)C1 (stereo not drawn) | – | inactive: -28.2%
58 | CC[C@]1(c2ccccc2)C(=O)N(C(=O)OC)N1C(=O)OC | – | inactive: 30.6%
59 | COCCCNC(=S)Nc1ccc2c(c1)OCCO2 | inconclusive: 13.1 µM [inhibitor, single point] | –
60 | Cc1ccc(NC(=O)C(c2ccccc2)c2ccccc2)c(O)c1 | inconclusive: 18.5 µM [inhibitor, single point] | –
61 | Cc1cc(C)c(S(=O)(=O)Nc2cccc(-n3cnnn3)c2)c(C)c1 | inconclusive: 11.7 µM [inhibitor, partial curve, poor fit] | –
62 | N#C/C(=C(/O)COc1ccccc1)c1nc2ccccc2s1 | – | inactive: 58.8%
63 | Cc1ccc(S(=O)(=O)N2CCC(C(=O)Nc3ccc(C(C)C)cc3)CC2)cc1 | inconclusive: 10.4 µM [inhibitor, partial curve] | –
64 | COc1ccc(-c2nc(CN3CCN(c4cc(C)nc(C)c4)CC3)c(C)o2)c2ccccc12 | inconclusive: 4.15 µM [inhibitor, partial curve, poor fit] | –
65 | CCOc1ccc(NC(=S)NCC(c2cccnc2)N2CCOCC2)cc1 (stereo not drawn) | inconclusive: 18.5 µM [inhibitor, single point] | –
66 | CN(C)CCCN(C(=O)c1ccc([N+](=O)[O-])o1)c1nc2cc3c(cc2s1)OCO3 | – | inactive: -1.28%
67 | Cc1ccc(/C=N/NC(=O)c2nnn(-c3nonc3N)c2C(C)C)s1 | inconclusive: 18.5 µM [inhibitor, single point] | –
68 | COC(=O)c1sccc1NC(=O)Nc1cccc([N+](=O)[O-])c1 | inconclusive: 10.4 µM [inhibitor, single point] | –

Quoted from the listing.
In Potency, CCOc1ccc(NCc2cccn2-c2nnc(N3CCC(C(=O)NCCCN4CCCCC4CC)CC3)s2)cc1 (stereo not drawn) is entered as inconclusive: 11.7 µM [inhibitor, single point]
In Potency, COc1ccc(-c2ccc(F)cc2)cc1[C@H]1[C@H]2C=CC[C@@H](C)[C@@H]2C(=O)N1Cc1ccccc1 is entered as inconclusive: 11.7 µM [inhibitor, single point]
In Potency, COc1cc(/C=C2\SC(c3ccc(C)cc3)=NC2=O)cc(OC)c1O is entered as inconclusive: 4.15 µM [inhibitor, full curve]
